In patent US7626076B2, “Transgenic mouse whose genome comprises a homozygous disruption of its α1G gene, a method of preparing the same and use thereof” (Orient Bio., Inc., priority 2002, dated 2009):
Some of these results come from one statement about several compounds together.

Tested on: wild-type and α1G −/− mice
Test: SWD generation in epidural EEG after systemic injection of absence seizure-inducing agents
Type: in vivo, mouse
Conditions: 70 mg/kg
Description: To examine the role of α1G in the generation of SWDs in vivo, the present inventors systematically [“systemic” and “systematic” are different] injected into α1G −/− mice and wild-type mice either γ-butyrolactone, a prodrug of γ-hydroxybutyric acid, or (RS)-baclofen. Absence seizures induced by these drugs are characterized by bilaterally synchronous SWDs and have been associated with behavioral arrest, facial myoclonus, and vibrissal twitching.

For `O=C1CCCO1` [γ-butyrolactone], the “frequency of sporadic bilaterally synchronous oscillations of shorter duration” value was 3-4 Hz.
